# Measurements reported in PMC7862700.
# The entries are a selection whose mix differs from that of the whole data set. For part of these data: At the low end of the ranking, values are background and their order means little. The list shows a part of the results. For part of these data: Construct or isoform of the protein are uncertain.
# Assays:
# Experiment in all cases: DAPPL (digital affinity profiling via proximity ligation, sequencing)
# Conditions in all cases: 10 mM Tris-HCl pH 7.5, 50 mM NaCl, 1 mM DTT, 4% glycerol, room temperature, 30 min; GST-TFs on glutathione beads, 16-mer random dsDNA library, 0.1% …; high values mean tight binding; double strand, one strand shown; scale: fold enrichment (6-mer frequency, TF over GST control)
# GABPA = target: T1, GABPA (UniProt Q06546)
# T1 sequence: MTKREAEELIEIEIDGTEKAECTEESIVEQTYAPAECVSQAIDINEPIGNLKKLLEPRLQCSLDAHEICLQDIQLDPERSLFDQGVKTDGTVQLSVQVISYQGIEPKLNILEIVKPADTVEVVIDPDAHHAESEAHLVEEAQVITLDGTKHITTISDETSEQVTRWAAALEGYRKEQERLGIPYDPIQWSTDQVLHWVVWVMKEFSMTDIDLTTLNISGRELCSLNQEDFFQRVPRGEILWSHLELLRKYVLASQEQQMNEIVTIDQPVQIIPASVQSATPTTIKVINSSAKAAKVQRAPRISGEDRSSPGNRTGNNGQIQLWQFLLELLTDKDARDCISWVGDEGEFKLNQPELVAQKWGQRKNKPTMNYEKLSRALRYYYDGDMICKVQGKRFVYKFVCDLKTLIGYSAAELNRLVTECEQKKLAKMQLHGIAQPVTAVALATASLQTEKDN
# ETS1 = target: T2, ETS1 (UniProt P14921)
# T2 sequence: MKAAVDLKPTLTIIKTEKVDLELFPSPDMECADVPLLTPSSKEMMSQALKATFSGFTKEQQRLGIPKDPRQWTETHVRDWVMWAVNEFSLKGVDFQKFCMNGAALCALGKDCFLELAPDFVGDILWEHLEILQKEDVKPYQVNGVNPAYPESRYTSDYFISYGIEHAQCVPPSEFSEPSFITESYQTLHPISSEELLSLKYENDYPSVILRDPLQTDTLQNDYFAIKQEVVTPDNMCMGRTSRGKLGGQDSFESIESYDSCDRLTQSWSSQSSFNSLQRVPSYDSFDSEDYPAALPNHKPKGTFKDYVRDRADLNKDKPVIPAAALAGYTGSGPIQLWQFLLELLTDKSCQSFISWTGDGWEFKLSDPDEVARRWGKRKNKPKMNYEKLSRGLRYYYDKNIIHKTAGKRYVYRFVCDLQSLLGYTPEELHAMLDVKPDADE
# SPDEF = target: T3, SPDEF (UniProt O95238)
# T3 sequence: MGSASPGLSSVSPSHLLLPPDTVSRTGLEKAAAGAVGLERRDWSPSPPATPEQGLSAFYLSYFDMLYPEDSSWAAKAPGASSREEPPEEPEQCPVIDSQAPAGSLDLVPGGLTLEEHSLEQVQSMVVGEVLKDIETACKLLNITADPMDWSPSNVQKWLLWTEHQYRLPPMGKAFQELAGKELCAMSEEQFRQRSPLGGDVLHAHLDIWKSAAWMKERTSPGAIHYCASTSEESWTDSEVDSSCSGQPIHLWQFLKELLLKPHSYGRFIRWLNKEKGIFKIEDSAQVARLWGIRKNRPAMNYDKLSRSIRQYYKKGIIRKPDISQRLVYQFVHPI
Sequence,binding signal (GABPA),binding signal (ETS1),binding signal (SPDEF)
AAAGGA,0.876,0.818,0.916
ACAGTC,0.461,0.414,0.405
AGTCTA,0.772,0.723,0.692
CCAGGA,0.632,0.68,0.813
GACGCG,0.607,0.685,0.637
TAGGGA,0.803,0.885,0.808
GAGTCC,0.381,0.365,0.438
CCCGGG,0.836,0.752,0.899
GACAGT,0.507,0.437,0.464
AGGAGC,0.426,0.418,0.355
GCAGTC,0.455,0.442,0.427
GGCACG,0.901,0.772,0.787
GCGGCG,0.797,0.758,0.639
CGCTGA,0.796,0.91,0.819
TGGGTC,0.651,0.622,0.68
GCCATA,0.984,0.859,0.959
ATCGGA,0.395,0.422,0.435
AGAGCG,0.43,0.489,0.449
AGCCAT,0.828,0.817,0.814
CAAGAC,0.841,0.754,0.849
CAGTGC,0.748,0.813,0.773
GAGGAC,0.665,0.591,0.589
GATCAG,0.716,0.759,0.687
AGTCAT,0.597,0.583,0.568
GGCATG,0.887,0.811,0.765
GGAGCC,0.318,0.332,0.32
GGAACG,0.608,0.611,0.556
GCGTAG,0.769,0.779,0.796
AGAGTT,0.811,0.723,0.74
GACGGT,0.467,0.408,0.47
